Assay results as given in patent US20240292871A1, “A SWEETENER OR SWEETNESS ENHANCER COMPOSITION” (ANALYTICON DISCOVERY GMBH, priority 2020, published 2024).
For at least one compound, name, drawing or mass did not settle the structure.

How the values were obtained:
[1] = Organoleptic test of the compounds against sucrose (intrinsic sweetness); conditions: compound at 400 ppm in non-carbonated mineral water vs sucrose 20 g/l (2%); panel of 3-4 panelists
[2] = Organoleptic test of the compounds in combination with sucrose against sucrose (sucrose enhancement), 2-AFC; parameters: key: x = detected; conditions: compound below its sweetness perception level in 6% sucrose vs 6% sucrose, 12 to 15 panelists
[3] = Organoleptic test, Rebaudioside M enhancement, 2-AFC; parameters: key: x = detected; conditions: compound below its sweetness perception level in 150 ppm Rebaudioside M vs 150 ppm Rebaudioside M, 12 to 15 panelists

C[C@H](CC[C@@H](O[C@@H]1O[C@H](CO[C@@H]2O[C@H](CO)[C@@H](O)[C@H](O)[C@H]2O)[C@@H](O)[C@H](O)[C@H]1O[C@@H]1O[C@H](CO)[C@@H](O)[C@H](O)[C@H]1O)C(C)(C)O)[C@H]1CC[C@@]2(C)[C@@H]3CC=C4C(CC[C@H](O[C@@H]5O[C@H](CO[C@@H]6O[C@H](CO)[C@@H](O)[C@H](O)[C@H]6O[C@@H]6O[C@H](CO)[C@@H](O)[C@H](O)[C@H]6O)[C@@H](O)[C@H](O)[C@H]5O)C4(C)C)[C@]3(C)[C@H](O)C[C@]12C (some centres unmarked) [Compound 1]
Sweetness [1]: 3 (3: sweeter than 2% sucrose) | Sucrose enhancement x = detected [2]: x | Reb M enhancement x = detected [3]: x

C[C@H](CC[C@@H](O[C@@H]1O[C@H](CO)[C@@H](O)[C@H](O)[C@H]1O[C@@H]1O[C@H](CO)[C@@H](O)[C@H](O)[C@H]1O)C(C)(C)O)[C@H]1CC[C@@]2(C)C3CC=C4[C@@H](CC[C@H](O[C@@H]5O[C@H](CO[C@@H]6O[C@H](CO)[C@@H](O)[C@H](O)[C@H]6O)[C@@H](O)[C@H](O)[C@H]5O)C4(C)C)[C@]3(C)CC[C@]12C (some centres unmarked) [Compound 2]
Sweetness [1]: 3 (3: sweeter than 2% sucrose) | Sucrose enhancement x = detected [2]: x | Reb M enhancement x = detected [3]: x

CC(CCC(O[C@@H]1O[C@H](CO[C@@H]2O[C@H](CO)[C@@H](O)[C@H](O)[C@H]2O)[C@@H](O)[C@H](O)[C@H]1O[C@@H]1O[C@H](CO)[C@@H](O)[C@H](O)[C@H]1O)C(C)(C)O)C1CCC2(C)C3CC=C4C(CCC(O[C@@H]5O[C@H](CO[C@@H]6O[C@H](CO)[C@@H](O)[C@H](O)[C@H]6O)[C@@H](O[C@@H]6O[C@H](CO)[C@@H](O)[C@H](O)[C@H]6O)[C@H](O)[C@H]5O)C4(C)C)C3(C)CCC12C (some centres unmarked) [Compound 3]
Sweetness [1]: 3 (3: sweeter than 2% sucrose) | Sucrose enhancement x = detected [2]: x | Reb M enhancement x = detected [3]: x

C[C@H](CC[C@@H](O[C@@H]1O[C@H](CO[C@@H]2O[C@H](CO)[C@@H](O)[C@H](O)[C@H]2O)[C@@H](O)[C@H](O)[C@H]1O)C(C)(C)O)C1CC[C@@]2(C)C3CC=C4[C@@H](CC[C@H](O[C@@H]5O[C@H](CO[C@@H]6O[C@H](CO)[C@@H](O)[C@H](O)[C@H]6O)[C@@H](O)[C@H](O)[C@H]5O)C4(C)C)[C@]3(C)CC[C@]12C (some centres unmarked) [Compound 4]
Sweetness [1]: 3 (3: sweeter than 2% sucrose)

CC(CCC(O[C@@H]1O[C@H](CO[C@@H]2O[C@H](CO)[C@@H](O)[C@H](O)[C@H]2O)[C@@H](O)[C@H](O)[C@H]1O)C(C)(C)O)C1CCC2(C)C3CC=C4C(CC[C@H](O[C@@H]5O[C@H](CO)[C@@H](O[C@@H]6O[C@H](CO)[C@@H](O)[C@H](O)[C@H]6O)[C@H](O)[C@H]5O)C4(C)C)C3(C)CCC12C (some centres unmarked) [Compound 6]
Sweetness [1]: 2 (isosweet to 2% sucrose) | Sucrose enhancement x = detected [2]: x | Reb M enhancement x = detected [3]: x

C[C@H](CC[C@@H](O[C@@H]1O[C@H](CO)[C@@H](O)[C@H](O)[C@H]1O[C@@H]1O[C@H](CO)[C@@H](O)[C@H](O)[C@H]1O)C(C)(C)O)[C@H]1CC[C@@]2(C)[C@@H]3CC=C4C(CC[C@H](O[C@@H]5O[C@H](CO)[C@@H](O[C@@H]6O[C@H](CO)[C@@H](O)[C@H](O)[C@H]6O)[C@H](O)[C@H]5O)C4(C)C)[C@]3(C)C(=O)C[C@]12C (some centres unmarked) [Compound 7]
Sweetness [1]: 3 (3: sweeter than 2% sucrose) | Sucrose enhancement x = detected [2]: x | Reb M enhancement x = detected [3]: x

C[C@H](CC[C@@H](O[C@@H]1O[C@H](CO[C@@H]2O[C@H](CO)[C@@H](O)[C@H](O)[C@H]2O)[C@@H](O)[C@H](O)[C@H]1O[C@@H]1O[C@H](CO[C@@H]2O[C@H](CO)[C@@H](O)[C@H](O)[C@H]2O)[C@@H](O)[C@H](O)[C@H]1O)C(C)(C)O)[C@H]1CC[C@@]2(C)[C@@H]3CC=C4C(CC[C@H](O[C@@H]5O[C@H](CO)[C@@H](O)[C@H](O)[C@H]5O)C4(C)C)[C@]3(C)[C@H](O)C[C@]12C (some centres unmarked) [Compound 8]
Sweetness [1]: 3 (3: sweeter than 2% sucrose) | Sucrose enhancement x = detected [2]: x | Reb M enhancement x = detected [3]: x

C[C@H](CC[C@@H](O[C@@H]1O[C@H](CO[C@@H]2O[C@H](CO)[C@@H](O)[C@H](O)[C@H]2O)[C@@H](O)[C@H](O)[C@H]1O[C@@H]1O[C@H](CO[C@@H]2O[C@H](CO)[C@@H](O)[C@H](O)[C@H]2O)[C@@H](O)[C@H](O)[C@H]1O)C(C)(C)O)[C@H]1CC[C@@]2(C)[C@@H]3CC=C4C(CC[C@H](O[C@@H]5O[C@H](CO[C@@H]6O[C@H](CO)[C@@H](O)[C@H](O)[C@H]6O)[C@@H](O)[C@H](O)[C@H]5O)C4(C)C)[C@]3(C)[C@H](O)C[C@]12C (some centres unmarked) [Compound 9]
Sweetness [1]: 3 (3: sweeter than 2% sucrose) | Sucrose enhancement x = detected [2]: x | Reb M enhancement x = detected [3]: x

CC(CCC(O[C@@H]1O[C@H](CO[C@@H]2O[C@H](CO)[C@@H](O)[C@H](O)[C@H]2O)[C@@H](O)[C@H](O)[C@H]1O[C@@H]1O[C@H](CO)[C@@H](O)[C@H](O)[C@H]1O)C(C)(C)O)C1CCC2(C)C3CC=C4C(CCC(O[C@@H]5O[C@H](CO[C@@H]6O[C@H](CO)[C@@H](O[C@H]7O[C@H](CO)[C@@H](O)[C@H](O)[C@H]7O)[C@H](O)[C@H]6O)[C@@H](O)[C@H](O)[C@H]5O)C4(C)C)C3(C)C(O)CC12C (some centres unmarked) [Compound 10]
Sweetness [1]: 3 (3: sweeter than 2% sucrose) | Sucrose enhancement x = detected [2]: x | Reb M enhancement x = detected [3]: x

C[C@H](CC[C@@H](O[C@@H]1O[C@H](CO[C@@H]2O[C@H](CO)[C@@H](O)[C@H](O)[C@H]2O)[C@@H](O)[C@H](O)[C@H]1O[C@@H]1O[C@H](CO)[C@@H](O)[C@H](O)[C@H]1O)C(C)(C)O)[C@H]1CC[C@@]2(C)[C@@H]3CC=C4C(CC[C@H](O[C@@H]5O[C@H](CO[C@@H]6O[C@H](CO[C@@H]7O[C@H](CO)[C@@H](O)[C@H](O)[C@H]7O)[C@@H](O)[C@H](O)[C@H]6O)[C@@H](O)[C@H](O)[C@H]5O[C@@H]5O[C@H](CO)[C@@H](O)[C@H](O)[C@H]5O)C4(C)C)[C@]3(C)[C@H](O)C[C@]12C (some centres unmarked) [Compound 11]
Sweetness [1]: 2 (isosweet to 2% sucrose) | Reb M enhancement x = detected [3]: x

C[C@H](CC[C@@H](O[C@@H]1O[C@H](CO[C@@H]2O[C@H](CO)[C@@H](O)[C@H](O)[C@H]2O)[C@@H](O)[C@H](O)[C@H]1O[C@@H]1O[C@H](CO)[C@@H](O)[C@H](O)[C@H]1O)C(C)(C)O)[C@H]1CC[C@@]2(C)[C@@H]3CC=C4C(CC[C@H](O[C@@H]5O[C@H](CO[C@@H]6O[C@H](CO)[C@@H](O[C@@H]7O[C@H](CO)[C@@H](O)[C@H](O)[C@H]7O)[C@H](O)[C@H]6O)[C@@H](O)[C@H](O)[C@H]5O[C@@H]5O[C@H](CO)[C@@H](O)[C@H](O)[C@H]5O)C4(C)C)[C@]3(C)[C@H](O)C[C@]12C (some centres unmarked) [Compound 12]
Sweetness [1]: 2 (isosweet to 2% sucrose) | Reb M enhancement x = detected [3]: x

C[C@H](CC[C@@H](O[C@@H]1O[C@H](CO[C@@H]2O[C@H](CO)[C@@H](O)[C@H](O)[C@H]2O)[C@@H](O)[C@H](O)[C@H]1O[C@@H]1O[C@H](CO)[C@@H](O[C@@H]2O[C@H](CO)[C@@H](O)[C@H](O)[C@H]2O)[C@H](O)[C@H]1O)C(C)(C)O)[C@H]1CC[C@@]2(C)[C@@H]3CC=C4C(CC[C@H](O[C@@H]5O[C@H](CO[C@@H]6O[C@H](CO)[C@@H](O)[C@H](O)[C@H]6O)[C@@H](O)[C@H](O)[C@H]5O)C4(C)C)[C@]3(C)CC[C@]12C (some centres unmarked) [Compound 14]
Sweetness [1]: 2 (isosweet to 2% sucrose)

C[C@H](CC[C@@H](O[C@@H]1O[C@H](CO[C@@H]2O[C@H](CO)[C@@H](O)[C@H](O)[C@H]2O)[C@@H](O)[C@H](O)[C@H]1O[C@@H]1O[C@H](CO)[C@@H](O)[C@H](O)[C@H]1O)C(C)(C)O)[C@H]1CC[C@@]2(C)[C@@H]3CC=C4C(CC[C@H](O[C@@H]5O[C@H](CO[C@@H]6O[C@H](CO)[C@@H](O)[C@H](O)[C@H]6O[C@@H]6O[C@H](CO)[C@@H](O)[C@H](O)[C@H]6O)[C@@H](O)[C@H](O)[C@H]5O)C4(C)C)[C@]3(C)CC[C@]12C (some centres unmarked) [Compound 15]
Sweetness [1]: 3 (3: sweeter than 2% sucrose) | Sucrose enhancement x = detected [2]: x

C[C@H](CC[C@@H](O[C@@H]1O[C@H](CO[C@@H]2O[C@H](CO[C@@H]3O[C@H](CO)[C@@H](O)[C@H](O)[C@H]3O)[C@@H](O)[C@H](O)[C@H]2O)[C@@H](O)[C@H](O)[C@H]1O[C@@H]1O[C@H](CO)[C@@H](O)[C@H](O)[C@H]1O)C(C)(C)O)[C@H]1CC[C@@]2(C)[C@@H]3CC=C4C(CC[C@H](O[C@@H]5O[C@H](CO[C@@H]6O[C@H](CO)[C@@H](O)[C@H](O)[C@H]6O)[C@@H](O)[C@H](O)[C@H]5O)C4(C)C)[C@]3(C)[C@H](O)C[C@]12C (some centres unmarked) [Compound 16]
Sweetness [1]: 2 (isosweet to 2% sucrose) | Reb M enhancement x = detected [3]: x

C[C@H](CC[C@@H](O[C@@H]1O[C@H](CO[C@@H]2O[C@H](CO[C@@H]3O[C@H](CO)[C@@H](O)[C@H](O)[C@H]3O)[C@@H](O)[C@H](O)[C@H]2O)[C@@H](O)[C@H](O)[C@H]1O[C@@H]1O[C@H](CO)[C@@H](O)[C@H](O)[C@H]1O)C(C)(C)O)[C@H]1CC[C@@]2(C)[C@@H]3CC=C4C(CC[C@H](O[C@@H]5O[C@H](CO[C@@H]6O[C@H](CO[C@@H]7O[C@H](CO)[C@@H](O)[C@H](O)[C@H]7O)[C@@H](O)[C@H](O)[C@H]6O)[C@@H](O)[C@H](O)[C@H]5O)C4(C)C)[C@]3(C)[C@H](O)C[C@]12C (some centres unmarked) [Compound 17]
Sweetness [1]: 2 (isosweet to 2% sucrose)
